The list shows a part of the results.

Sequences of proteins named here, by UniProt entry; tags and fusion partners are left off.
UniProt Q0JBA9, entry or part of it: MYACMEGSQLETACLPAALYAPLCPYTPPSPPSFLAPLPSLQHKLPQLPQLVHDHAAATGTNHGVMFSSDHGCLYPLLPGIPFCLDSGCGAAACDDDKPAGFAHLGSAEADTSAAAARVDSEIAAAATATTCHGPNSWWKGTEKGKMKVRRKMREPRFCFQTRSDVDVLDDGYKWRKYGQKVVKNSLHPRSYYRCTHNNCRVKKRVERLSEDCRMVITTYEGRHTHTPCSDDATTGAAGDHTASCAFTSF

The target of the assay is OsWRKY34 (Oryza sativa, UniProt Q0JBA9 1-250). The assay is described as follows: protein-binding microarray (RPBM); PBS, 2% BSA, 51.3 ng/ul salmon testes DNA, 50 uM zinc acetate, 200 nM TF, 25 C, 1 h; high values mean tight binding. To be noted: protein: recombinant; tags: N-terminal polyhistidine and DsRed monomer fusion (pET32a); label: CyDye5-dUTP incorporated in the synthesized complementary strand; 3' TTTTT single-stranded linker to array surface; dsDNA, one strand shown. Summed up:
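Using Ni–NTA, transcription factors fused N-terminally to polyhistidine and DsRed were purified after expression in E. coli BL21-CodonPlus. These were incubated at 200 nM with a blocked, double-stranded custom Agilent array for 1 h at 25 °C in a buffer containing 50 µM zinc acetate, and the array was washed. The binding signal is per-feature fluorescence intensity (arbitrary units) on an Axon 4000B scanner.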
On to “TGGCACTCAAGATGGGGCGATTTTCTGGTTTTCTTCATTCCGGAGTCACCTAGTGCAG”, for which the binding signal is 9130 fluorescence intensity (a.u.).
Take “GCATCGCTCGGCCAGAGATTCTCCTACAGTCGTACTGCCTCGGAGTCACCTAGTGCAG”: the binding signal was 8450 fluorescence intensity (a.u.).
Then “TGCTACCACCTGCTGCCTGCATTTAATCACCGACCTTACACGGAGTCACCTAGTGCAG”, with 9750 fluorescence intensity (a.u.); and “TGCTTCCGTCTTTCGGCGCAACACTGTCCATCAGATCCTGCGGAGTCACCTAGTGCAG”, with 9750 fluorescence intensity (a.u.).
“TGTTTGTCGTGACTTAGCTTAGTTGTTGCTGTTGTTGAGCCGGAGTCACCTAGTGCAG”: the binding signal is 10500 fluorescence intensity (a.u.).
On to “CATACCATATTTGTGGATACACTTTGTACATAGGCCGTGTCGGAGTCACCTAGTGCAG”, for which the binding signal was 8340 fluorescence intensity (a.u.).
“GCTCACCATCGTCACACTGGCTCACTGCTGCATTCCGCATCGGAGTCACCTAGTGCAG”: the binding signal was 9740 fluorescence intensity (a.u.).
Turning to “GAGGCACAGAAACTGTCATCCTTGGCCATTGCTAGCTGCTCGGAGTCACCTAGTGCAG”, the binding signal was 9480 fluorescence intensity (a.u.).
As to “GACCAGTCTAGTTCCAGTGCATCTCACTTCTCGCACCTCGCGGAGTCACCTAGTGCAG”, the binding signal is 10700 fluorescence intensity (a.u.).
On to “ACCGTTTTCATCCACTCCAGTCGACCAAAGCATCAAAATACGGAGTCACCTAGTGCAG”, for which the binding signal was 9640 fluorescence intensity (a.u.).
Turning to “ATGGTGTTTTTTTGCCTATTCAAAGCATTATGTGATGTTTCGGAGTCACCTAGTGCAG”, the binding signal is 10100 fluorescence intensity (a.u.).
The value for “GGAGTGATCCTCCTTTTGTCTCTCCTGCAGTATTTCTTAACGGAGTCACCTAGTGCAG” was 8970 fluorescence intensity (a.u.); that for “CCACACACCAAACCCTCTGTCCTCCGGCCGGTTCATCTTGCGGAGTCACCTAGTGCAG” was 8410 fluorescence intensity (a.u.).
The value for “ATATATTTTGGGATGTATCTAGTCTTTTTTTTTGGTTGACCGGAGTCACCTAGTGCAG” was 8700 fluorescence intensity (a.u.); that for “TCTTCCACTAAATCTCATCACACACTCCACACCTTTCTGCCGGAGTCACCTAGTGCAG” was 9040 fluorescence intensity (a.u.).
On to “GTTTCACAGGAACTAGGTTAACATTTTCACGAGTCTTTTCCGGAGTCACCTAGTGCAG”, for which the binding signal is 8140 fluorescence intensity (a.u.).
Turning to “AGAGTATTTGCATTTTTTTTGGGCTTTTAACTATTTGCCACGGAGTCACCTAGTGCAG”, the binding signal was 9540 fluorescence intensity (a.u.).
Consider “TTATTCGTGCGTGCATTCATTGAAACTATATCGTTCATAACGGAGTCACCTAGTGCAG”, for which the binding signal is 8030 fluorescence intensity (a.u.).
Take “AAACGCCATCTCCACCGTCGCCTCGCCTCGCCTCCACCTCCGGAGTCACCTAGTGCAG”: the binding signal was 9430 fluorescence intensity (a.u.).
Then “TTCCTGCTCTGTCCGTGCTCGACTCAATTCATTGTCAACCCGGAGTCACCTAGTGCAG”, with 8690 fluorescence intensity (a.u.); and “ACCTACTCTTCACTTATTTGGTTATTCCCAATCTCTCTCTCGGAGTCACCTAGTGCAG”, with 8690 fluorescence intensity (a.u.).
The value for “TTTCCTAAATATTGACTTTCTGTTGCCTGGTTGGTTTGAGCGGAGTCACCTAGTGCAG” was 9720 fluorescence intensity (a.u.); that for “CCTGTCATACACACACAACTTTTTAGTCACATCATCTCCACGGAGTCACCTAGTGCAG” was 12100 fluorescence intensity (a.u.); that for “CAAGTTATTGACTTTTGGTCATGATGTTACTATTCATCTTCGGAGTCACCTAGTGCAG” was 9120 fluorescence intensity (a.u.).
As to “TGACTGAATAGGATATACATATACTCTCCTTTCTTTTATTCGGAGTCACCTAGTGCAG”, the binding signal is 8760 fluorescence intensity (a.u.).
“AGGGTGGTTTTTAGTGACATGGTTCGTTGACCTAATCCAACGGAGTCACCTAGTGCAG”: the binding signal was 8950 fluorescence intensity (a.u.).
With “CTACCACCCTCACTCGCGAGCTCGGCTCAGCTCAGCTCACCGGAGTCACCTAGTGCAG”, the binding signal was 8060 fluorescence intensity (a.u.).
“CCTTCTCAAAGGGTGTGTTTTGTCCATTTGTAAAGTTGTACGGAGTCACCTAGTGCAG”: the binding signal was 8060 fluorescence intensity (a.u.).
In the case of “CCCGCGCCACCAACTTCGCCTCGGCGAGGCAAACCCATTTCGGAGTCACCTAGTGCAG”, the binding signal was 8330 fluorescence intensity (a.u.).
For the sequence “CATCACCCCAATGCAGGTCTAGTTAGTGTTTGTAGCTTGTCGGAGTCACCTAGTGCAG”, the binding signal was 8060 fluorescence intensity (a.u.).
Consider “ACCGCATCGCTGCCTGCCGCCGAGAGGCGCCCCTCATGAACGGAGTCACCTAGTGCAG”, for which the binding signal is 9050 fluorescence intensity (a.u.).
“ACCCGTAACTCGTGGATCCCATGTCAGCTACCCACGTTTTCGGAGTCACCTAGTGCAG”: the binding signal is 10300 fluorescence intensity (a.u.).
The value for “CGCCGCCGCCCGCCATCCGCCGTTGGCCACCCCGCCCCGTCGGAGTCACCTAGTGCAG” was 10000 fluorescence intensity (a.u.); that for “CTCTAAAATCCATCCTCTTCTTTTTCTTTTTCTTTTTTATCGGAGTCACCTAGTGCAG” was 8410 fluorescence intensity (a.u.).
Regarding “GATGGTTTGTGCCCTTTTCCCCTTAGCATAGCTGTGTATTCGGAGTCACCTAGTGCAG”, the binding signal was 9980 fluorescence intensity (a.u.).
The value for “CTCACGTTGCCCACTCCCTCCCCTGGACGCGTCGCGCTGCCGGAGTCACCTAGTGCAG” was 10000 fluorescence intensity (a.u.); that for “AGACCAGAACATCAGCCCGCTACCATATACAAGTGCATAGCGGAGTCACCTAGTGCAG” was 9460 fluorescence intensity (a.u.).
Consider “TTCGAATATCCATGACTCGCTTGATCTCCACCGCCCGTTTCGGAGTCACCTAGTGCAG”, for which the binding signal was 8380 fluorescence intensity (a.u.).
For “TACTCACCTTTTTCACTACATTGTGAATGTCCTAATGACTCGGAGTCACCTAGTGCAG”, the binding signal was 9260 fluorescence intensity (a.u.).
“ATCTGCCTAACGTAAAATGCACTATATTCTGTTTTGTTCTCGGAGTCACCTAGTGCAG”: the binding signal is 8370 fluorescence intensity (a.u.).
“GTTCCTGTACTCTTTACCATGCCGAAAGCGACCACGTTGACGGAGTCACCTAGTGCAG”: the binding signal is 9850 fluorescence intensity (a.u.).
Consider “CATGTAATTCTCTTCACTTTTGCTTGTTTGGGTTGTGAAACGGAGTCACCTAGTGCAG”, for which the binding signal is 10100 fluorescence intensity (a.u.).
